About 6,000 (1.7%) of roughly 350,000 compounds were called active. This list was built around the results that the source calls inconclusive (neither active nor inactive); the mix of calls is not that of the screen. Cut-off read from the data, not from the text of the source: active = CPE inhibition above about 20% (passing the limit was not always enough); inconclusive = no clear call, values can overlap the other calls; tested in BHK-21 cells. Where a structure was tested more than once in an assay, its records may differ in their call.
Test: protection of cells from dengue 2 killing – plate reader, single concentration, primary screen (AID 651640);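 note: 0% = median of neutral control wells and 100% = median of positive control wells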
Details: DENV2-infected cells, cytopathic effect rescue, at 9.99 µM, active compounds read high

SMILES | CPE inhibition
CCC1CN(S(=O)(=O)c2ccc3c(c2)NC(=O)CC(=O)N3)c2cc(Cl)ccc2O1 (stereo not drawn) | active: 22.7%
COc1ccc(NC(=O)Nc2cccc3c2O[C@@H](CN(C)Cc2ccc(C(F)(F)F)cc2)[C@@H](C)CN([C@@H](C)CO)C3=O)cc1 | inactive: 9.55%
CC(=O)N(C)C[C@@H]1Oc2cc(-c3ccncc3)ccc2S(=O)(=O)N([C@@H](C)CO)C[C@H]1C | inconclusive: 22.4%
Cc1cc(SCc2ccccc2Cl)nc(=O)[nH]1 | inconclusive: 21.8%
COc1ccc(CN(C)C[C@H]2OCCCC[C@@H](C)Oc3ccc(NC(=O)Cc4ccccc4)cc3C(=O)N([C@@H](C)CO)C[C@@H]2C)cc1 | inconclusive: 29.1%
CN(C)C(CNC(=O)c1ccc(NS(=O)(=O)c2cccc([N+](=O)[O-])c2)cc1)c1ccco1 (stereo not drawn) | inconclusive: 20.9%
CC(=O)Nc1cccc(NC(=O)CCNC(=O)c2ccccc2)c1 | inconclusive: 35.4%
Oc1ccc(C[C@H]2CNC(=S)N2CC2CCCN2C[C@H](Cc2ccc(O)cc2)N2C[C@H](Cc3ccc(O)cc3)N(CC3CCCCC3)C2=S)cc1 (stereo partly drawn) | inactive: -6.96%
CCC1(CC)NC(=O)N(CC(=O)OCC(=O)NC(=O)c2ccccc2OC)C1=O | inconclusive: 23.1%
C[C@H]1CN([C@@H](C)CO)C(=O)c2cc(C3=CCCC3)cnc2O[C@@H]1CN(C)C(=O)CN1CCOCC1 | inactive: 0.262%
O=C(C[C@H]1C[C@H]2c3cc(NC(=O)C4CCC4)ccc3O[C@H]2[C@@H](CO)O1)NCc1ccc2c(c1)OCO2 | inactive: 4.53%
Cc1ccc(S(=O)(=O)N[C@@H]2CC[C@H](CCn3cc(C4(O)CCCC4)nn3)O[C@H]2CO)cc1 | inconclusive: 21.1%
C/C=C/c1ccc([C@H]2[C@@H](CO)N(C(=O)CN(C)C)C23CN(C(=O)C2CC2)C3)cc1 | inactive: -5.53%
CCOc1ccc(NC(=O)CCc2c(C)nn(-c3ccc(N4CCCCC4)nn3)c2C)cc1 | inconclusive: 31.6%
NNC(=O)c1cc(C2CC2)nc2ccc(Br)cc12 | inactive: 2.51%
CC(C)(C)S(=O)N1Cc2cc(C(=O)N3CCOCC3)nc(-c3cccc(Br)c3)c2[C@H]1CCO (stereo partly drawn) | inactive: -7.07%
Cc1ccc(N=C2SCCCN2C(=O)C2=COCCO2)cc1Cl | inconclusive: 36.2%
CC1CCc2c(C(=O)NCc3cccnc3)csc2C1 (stereo not drawn) | inconclusive: 45.5%
C[C@@H]1CN([C@@H](C)CO)C(=O)c2cc(C3=CCCCC3)cnc2O[C@@H]1CN(C)Cc1ccccn1 | inactive: -3.28%
O=C(COc1ccc([N+](=O)[O-])cc1)NNC(=O)Nc1ccc([N+](=O)[O-])cc1 | inconclusive: 20.5%
C[C@H]1CN([C@@H](C)CO)C(=O)c2ccccc2-c2ccccc2CO[C@H]1CN(C)Cc1ccccc1C(F)(F)F | active: 21.1%
COCC(=O)Nc1ccc2c(c1)OC[C@H](C)N(C(=O)Cc1cccnc1)C[C@@H](C)[C@H](OC)CN(C)C2=O | active: 26.4%
CCOC(=O)CC1COc2ccccc2N1C(=O)c1cccc([N+](=O)[O-])c1 (stereo not drawn) | inconclusive: 44.3%
COc1ccc(Br)cc1/C=C(\C(=O)O)c1ccc(S(=O)(=O)N2CCCCC2)s1 | inactive: -9.43%
COCC(=O)N(C)C[C@@H]1Oc2ncc(C#Cc3ccccc3)cc2C(=O)N([C@H](C)CO)C[C@@H]1C | inconclusive: 31.5%

SMILES | CPE inhibition
Cc1ccc(-c2nc(CN3CCCCC3c3cccc(F)c3)c(C)o2)o1 (stereo not drawn) | inactive: -2.38%
O=C(O)CC1(O)C(=O)N(Cc2ccccc2)c2ccccc21 (stereo not drawn) | inactive: 11.9%
COc1cccc(CC(=O)OC(C)C(=O)NCc2ccc3c(c2)OCO3)c1 (stereo not drawn) | inactive: 13.6%
COc1ccc(-c2cnc3n2CCCCC3)cc1 | active: 44.2%
Cc1noc(C)c1NC(=O)Nc1ccc2c(c1)C(=O)N([C@H](C)CO)C[C@H](C)[C@H](CN(C)Cc1ccccc1)OCCCC[C@@H](C)O2 | inconclusive: 53.4%
CCOC(=O)C1CCCN(CCC(=O)Nc2ccc(Br)c(C)c2)C1 (stereo not drawn) | inconclusive: 27.9%
CCOC(=O)CCCN(c1[nH]c(C)c(C)c1C#N)S(=O)(=O)c1ccc(C)cc1 | inconclusive: 24.6%
COc1ccc(S(=O)(=O)Nc2ccc3c(c2)CC(=O)N([C@H](C)CO)C[C@@H](C)[C@H](CN(C)Cc2ccc(-c4ccccc4)cc2)O3)cc1 | active: 56.8%
Cc1ccc(Cl)cc1N1CCN(C(=O)c2ccc3nc[nH]c3c2)CC1 | inactive: 0.364%
Cc1c(OCC(=O)NCCN2CCOCC2)ccc2c1oc(=O)c1ccccc12 | inconclusive: 32.3%
COc1ccc(-c2cc3nc4ccccc4n3c(N)c2C#N)cc1 | inactive: 5.55%
O=C(Nc1ccccc1C(=O)N1CCOCC1)C1CC(=O)N(c2ccc(F)cc2)C1 (stereo not drawn) | inconclusive: 22.1%
O=C(NC(=O)c1cccc(F)c1)Nc1nc(-c2ccc(F)cc2)cc(C(F)(F)F)n1 | inconclusive: 21.5%
CCCCc1cc(=O)oc2c3c(cc(OCC(=O)N4CCC[C@H]4C(=O)O)c12)OC(C)(C)CC3 | inconclusive: 27.3%
O=C(C[C@H]1CC[C@@H]2[C@H](COC[C@H](O)CN2C(=O)c2ccncc2)O1)NCc1ccc(-c2ccccc2)cc1 | active: 20.2%
Oc1c(C(c2ccccc2Cl)N2CCCC2)ccc2cccnc12 (stereo not drawn) | inactive: -7.82%
CCOCCOC(=O)c1[nH]c2c(c1C)C(=O)CC(c1cccs1)C2 (stereo not drawn) | inactive: -5.37%
C[C@H]1CN([C@@H](C)CO)C(=O)Cc2cc(NC(=O)Nc3ccc(F)cc3)ccc2O[C@H]1CN(C)S(=O)(=O)c1ccc(Cl)cc1 | active: 43.3%
CCCN(CCC)Cc1c(C(=O)N/N=C/c2ccncc2)nnn1-c1nonc1N | inconclusive: 24.4%
Cc1csc(NC(=O)CSc2nc3nc(C)cc(C)n3n2)n1 | inconclusive: 30.7%
Cc1ccc(-c2cc(C(=O)NCCCN3CCOCC3)c3ccc(Cl)c(C)c3n2)cc1 | inconclusive: 24.6%
C[C@H](CO)N1C[C@H](C)[C@H](CN(C)Cc2ccncc2)Oc2ccc(NC(=O)Nc3ccc(F)cc3)cc2C1=O | inactive: -10.5%
S=C(NCCc1ccccc1)N1CCN(C(=S)NCCc2ccccc2)CC1 | inconclusive: 21.9%
C[C@H]1COC(=O)CCCC/C=C\C[C@H](CC(=O)N(CCO)Cc2ccccc2)C(=O)N1 | inconclusive: 42.9%
CC(C)NC(=O)N1C[C@@H]2[C@H](c3ccccc31)[C@@H](CO)N2C(=O)c1ccccc1 | active: 29.1%

Pulled by structure from the entries so far, two records:
SMILES | CPE inhibition
Cc1ccc(-c2cc(C(=O)NCCCN3CCOCC3)c3ccc(Cl)c(C)c3n2)cc1 | inconclusive: 24.6%
Cc1ccc(N=C2SCCCN2C(=O)C2=COCCO2)cc1Cl | inconclusive: 36.2%

(next part)

SMILES | CPE inhibition
Cc1ccc(-n2c(Cc3ccccc3)n[nH]c2=S)c(C)c1 | inactive: -0.167%
Cc1noc(C)c1NC(=O)N(C)C[C@@H]1Oc2cc(Br)ccc2S(=O)(=O)N([C@@H](C)CO)C[C@H]1C | active: 21.5%
O=C(C[C@H]1C=C[C@H](NS(=O)(=O)c2ccccc2)[C@@H](CO)O1)N1CCC(Cc2ccccc2)CC1 | inconclusive: 31.3%
CN(Cc1ccc(CNC[C@H]2O[C@@H](n3cnc4c(N)ncnc43)[C@H](O)[C@@H]2O)o1)S(C)(=O)=O | inconclusive: 30.2%
Cn1cnc(S(=O)(=O)N2CC[C@@H]3[C@H](CO)Nc4ccc(C#Cc5ccc(F)cc5)cc4[C@@H]32)c1 | active: 27.3%
Cc1ccc(-n2ncc3c(=O)[nH]c(SCC(=O)N4CCCCC4)nc32)cc1 | inconclusive: 49.8%
Cc1cc(Br)c(OCc2ccc(C(=O)N/N=C3\CC(=O)CC(C)(C)C3)cc2)c(Br)c1 | active: 76.4%
O=C(Nc1ccnn1C1CCN(C2CCCCC2)CC1)c1cccc(F)c1 | inconclusive: 38%
O=C1CN(C(=O)COC(=O)COc2ccccc2)c2ccccc2N1 | inconclusive: 48.1%
CCc1ccccc1OCC(=O)NNCC(=O)Nc1cccc(C#N)c1 | active: 41.2%
CC(C)C#Cc1ccc2c(c1)O[C@@H](CN(C)C(=O)CC1CC1)[C@@H](C)CN([C@H](C)CO)S2(=O)=O | inconclusive: 38.2%
C[C@@H]1CN([C@H](C)CO)C(=O)c2cc(NC(=O)CCC(F)(F)F)ccc2O[C@H]1CN(C)C(=O)Nc1ccc(C(F)(F)F)cc1 | inconclusive: 35.9%
Cc1noc(C)c1S(=O)(=O)Nc1ccc2c(c1)C(=O)N([C@H](C)CO)C[C@H](C)[C@H](CN(C)Cc1ccc(C(=O)Nc3ccccc3N)cc1)O2 | active: 24%
Cc1noc(C)c1S(=O)(=O)Nc1ccc2c(c1)C(=O)N([C@@H](C)CO)C[C@H](C)[C@H](CN(C)Cc1ccc3c(c1)OCO3)O2 | active: 31.8%
COc1cc2cc(CCCOC(=O)CCC(=O)O)oc(=O)c2cc1OC | active: 28.1%
CCOC(=O)[C@]12CCCC=C1N(Cc1cccc3ccccc13)C(=O)[C@H](CC(=O)NCC13CC4CC(CC(C4)C1)C3)C2 | inconclusive: 20.1%
CCCCCCCCCCCCN1[C@@H](CC(C)=O)c2cc(F)cc(F)c2S1(=O)=O | active: 37.7%
CCC(=O)Nc1ccc2c(c1)C(=O)N(C)C[C@@H](OC)[C@@H](C)CN(C(=O)COC)[C@H](C)CO2 | active: 21.8%
O=C(Nc1ccccc1C(=O)NCc1cccnc1)c1ccccc1Cl | active: 63.6%
O=C(NCc1ccccc1)c1ccc(Br)o1 | inactive: -5.29%
Cc1cc2c(sc3c(C)ccc(C)c32)c(C)n1 | inconclusive: 43.5%
C[C@H](CO)N1C[C@H](C)[C@H](CN(C)C(=O)Nc2cccc3ccccc23)Oc2c(NC(=O)Nc3ccc(F)cc3)cccc2C1=O | inactive: -10.5%
Cc1csc(=O)n1CCC(=O)OCC(=O)NNC(=O)c1ccc(Br)cc1 | inconclusive: 56.2%

Of the compounds above, three have a cyano group:
SMILES | CPE inhibition
CCOC(=O)CCCN(c1[nH]c(C)c(C)c1C#N)S(=O)(=O)c1ccc(C)cc1 | inconclusive: 24.6%
COc1ccc(-c2cc3nc4ccccc4n3c(N)c2C#N)cc1 | inactive: 5.55%
CCc1ccccc1OCC(=O)NNCC(=O)Nc1cccc(C#N)c1 | active: 41.2%

From PubChem BioAssay AID651640 (Broad Institute, 2012)
